The supplement of paper PMC10849652
This is one part of the list.

Protein sequences, listed by entry. Tags and fused reporters are not part of them. Lines headed by an entry give the natural chain unless they say otherwise; changes in a name come on top.
UniProt Q7Z6V5: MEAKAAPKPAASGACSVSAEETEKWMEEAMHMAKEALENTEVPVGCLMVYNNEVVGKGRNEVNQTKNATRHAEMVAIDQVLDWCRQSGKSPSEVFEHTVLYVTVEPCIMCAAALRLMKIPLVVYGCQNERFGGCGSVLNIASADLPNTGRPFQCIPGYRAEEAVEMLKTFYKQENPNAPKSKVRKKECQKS
UniProt O00116: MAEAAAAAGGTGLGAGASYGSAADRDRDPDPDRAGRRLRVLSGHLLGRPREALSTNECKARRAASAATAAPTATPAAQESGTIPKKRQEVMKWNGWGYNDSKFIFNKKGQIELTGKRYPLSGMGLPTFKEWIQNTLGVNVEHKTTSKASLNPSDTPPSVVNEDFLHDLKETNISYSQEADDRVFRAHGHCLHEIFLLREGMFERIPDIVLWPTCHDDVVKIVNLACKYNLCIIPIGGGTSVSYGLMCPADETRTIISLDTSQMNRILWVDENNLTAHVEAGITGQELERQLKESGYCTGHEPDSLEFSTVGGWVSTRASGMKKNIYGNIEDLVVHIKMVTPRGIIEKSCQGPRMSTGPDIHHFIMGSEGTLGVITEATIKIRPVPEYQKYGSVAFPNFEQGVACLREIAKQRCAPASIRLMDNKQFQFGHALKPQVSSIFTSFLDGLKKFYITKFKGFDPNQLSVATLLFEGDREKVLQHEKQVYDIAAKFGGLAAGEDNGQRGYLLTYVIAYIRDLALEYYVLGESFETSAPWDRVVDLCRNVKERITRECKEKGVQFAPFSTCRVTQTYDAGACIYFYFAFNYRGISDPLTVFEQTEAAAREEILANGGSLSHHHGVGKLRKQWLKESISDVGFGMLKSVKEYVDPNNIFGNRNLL
UniProt P55196: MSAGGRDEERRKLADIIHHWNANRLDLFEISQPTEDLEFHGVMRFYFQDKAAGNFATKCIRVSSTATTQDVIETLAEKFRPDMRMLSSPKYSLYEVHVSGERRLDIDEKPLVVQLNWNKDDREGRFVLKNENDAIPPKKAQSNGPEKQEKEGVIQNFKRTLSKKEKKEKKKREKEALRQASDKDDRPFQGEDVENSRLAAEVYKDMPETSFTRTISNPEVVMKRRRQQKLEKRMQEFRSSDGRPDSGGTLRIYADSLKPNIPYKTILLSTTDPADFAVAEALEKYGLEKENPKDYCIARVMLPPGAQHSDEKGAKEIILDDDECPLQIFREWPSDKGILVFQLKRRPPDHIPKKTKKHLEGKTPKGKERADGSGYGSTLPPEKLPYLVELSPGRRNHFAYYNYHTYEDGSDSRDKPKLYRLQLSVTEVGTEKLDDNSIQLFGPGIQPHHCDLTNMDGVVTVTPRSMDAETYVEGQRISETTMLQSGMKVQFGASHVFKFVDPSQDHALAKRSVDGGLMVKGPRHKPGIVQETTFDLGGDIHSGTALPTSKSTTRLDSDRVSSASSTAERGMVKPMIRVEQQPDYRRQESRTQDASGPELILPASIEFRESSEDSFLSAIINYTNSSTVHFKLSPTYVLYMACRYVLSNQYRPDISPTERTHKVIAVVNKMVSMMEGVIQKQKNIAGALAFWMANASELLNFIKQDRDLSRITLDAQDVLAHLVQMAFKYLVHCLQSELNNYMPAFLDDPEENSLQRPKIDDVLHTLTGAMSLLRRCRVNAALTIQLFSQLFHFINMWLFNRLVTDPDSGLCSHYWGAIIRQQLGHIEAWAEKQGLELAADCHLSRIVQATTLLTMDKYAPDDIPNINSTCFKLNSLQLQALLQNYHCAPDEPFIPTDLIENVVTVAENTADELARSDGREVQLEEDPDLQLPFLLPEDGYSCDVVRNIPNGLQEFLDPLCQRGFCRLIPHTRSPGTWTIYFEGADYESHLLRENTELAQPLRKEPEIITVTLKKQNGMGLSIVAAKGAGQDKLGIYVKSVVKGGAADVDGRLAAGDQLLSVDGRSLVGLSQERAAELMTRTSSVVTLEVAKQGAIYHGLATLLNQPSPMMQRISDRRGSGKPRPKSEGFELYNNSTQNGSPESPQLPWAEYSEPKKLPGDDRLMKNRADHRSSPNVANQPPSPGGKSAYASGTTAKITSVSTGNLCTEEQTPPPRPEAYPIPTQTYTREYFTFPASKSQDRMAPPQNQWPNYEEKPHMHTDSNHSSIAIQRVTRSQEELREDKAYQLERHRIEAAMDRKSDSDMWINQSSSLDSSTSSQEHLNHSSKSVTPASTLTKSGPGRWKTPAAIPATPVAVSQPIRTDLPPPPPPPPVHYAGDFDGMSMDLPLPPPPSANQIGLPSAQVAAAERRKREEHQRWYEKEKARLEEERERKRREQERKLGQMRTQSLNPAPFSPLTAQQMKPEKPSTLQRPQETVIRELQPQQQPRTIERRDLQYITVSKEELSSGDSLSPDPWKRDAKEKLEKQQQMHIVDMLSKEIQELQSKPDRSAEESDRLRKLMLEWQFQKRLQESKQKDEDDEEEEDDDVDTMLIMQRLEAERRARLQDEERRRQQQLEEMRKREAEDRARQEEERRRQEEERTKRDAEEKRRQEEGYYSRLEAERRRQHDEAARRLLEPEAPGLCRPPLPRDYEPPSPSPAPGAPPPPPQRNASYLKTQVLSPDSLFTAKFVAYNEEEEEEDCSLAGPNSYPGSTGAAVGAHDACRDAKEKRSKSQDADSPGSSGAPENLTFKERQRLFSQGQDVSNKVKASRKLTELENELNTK
UniProt Q562R1, whole entry, looked up: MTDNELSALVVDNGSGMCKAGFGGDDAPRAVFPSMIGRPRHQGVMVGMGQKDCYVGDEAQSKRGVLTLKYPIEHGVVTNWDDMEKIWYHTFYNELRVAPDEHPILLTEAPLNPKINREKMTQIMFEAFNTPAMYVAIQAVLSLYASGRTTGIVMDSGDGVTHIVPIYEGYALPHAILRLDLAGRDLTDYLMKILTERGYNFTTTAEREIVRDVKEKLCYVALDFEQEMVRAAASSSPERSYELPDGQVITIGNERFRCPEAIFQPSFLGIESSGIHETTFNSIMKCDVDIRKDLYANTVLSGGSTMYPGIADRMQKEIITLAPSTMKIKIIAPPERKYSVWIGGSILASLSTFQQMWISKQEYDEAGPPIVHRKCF
UniProt O00468: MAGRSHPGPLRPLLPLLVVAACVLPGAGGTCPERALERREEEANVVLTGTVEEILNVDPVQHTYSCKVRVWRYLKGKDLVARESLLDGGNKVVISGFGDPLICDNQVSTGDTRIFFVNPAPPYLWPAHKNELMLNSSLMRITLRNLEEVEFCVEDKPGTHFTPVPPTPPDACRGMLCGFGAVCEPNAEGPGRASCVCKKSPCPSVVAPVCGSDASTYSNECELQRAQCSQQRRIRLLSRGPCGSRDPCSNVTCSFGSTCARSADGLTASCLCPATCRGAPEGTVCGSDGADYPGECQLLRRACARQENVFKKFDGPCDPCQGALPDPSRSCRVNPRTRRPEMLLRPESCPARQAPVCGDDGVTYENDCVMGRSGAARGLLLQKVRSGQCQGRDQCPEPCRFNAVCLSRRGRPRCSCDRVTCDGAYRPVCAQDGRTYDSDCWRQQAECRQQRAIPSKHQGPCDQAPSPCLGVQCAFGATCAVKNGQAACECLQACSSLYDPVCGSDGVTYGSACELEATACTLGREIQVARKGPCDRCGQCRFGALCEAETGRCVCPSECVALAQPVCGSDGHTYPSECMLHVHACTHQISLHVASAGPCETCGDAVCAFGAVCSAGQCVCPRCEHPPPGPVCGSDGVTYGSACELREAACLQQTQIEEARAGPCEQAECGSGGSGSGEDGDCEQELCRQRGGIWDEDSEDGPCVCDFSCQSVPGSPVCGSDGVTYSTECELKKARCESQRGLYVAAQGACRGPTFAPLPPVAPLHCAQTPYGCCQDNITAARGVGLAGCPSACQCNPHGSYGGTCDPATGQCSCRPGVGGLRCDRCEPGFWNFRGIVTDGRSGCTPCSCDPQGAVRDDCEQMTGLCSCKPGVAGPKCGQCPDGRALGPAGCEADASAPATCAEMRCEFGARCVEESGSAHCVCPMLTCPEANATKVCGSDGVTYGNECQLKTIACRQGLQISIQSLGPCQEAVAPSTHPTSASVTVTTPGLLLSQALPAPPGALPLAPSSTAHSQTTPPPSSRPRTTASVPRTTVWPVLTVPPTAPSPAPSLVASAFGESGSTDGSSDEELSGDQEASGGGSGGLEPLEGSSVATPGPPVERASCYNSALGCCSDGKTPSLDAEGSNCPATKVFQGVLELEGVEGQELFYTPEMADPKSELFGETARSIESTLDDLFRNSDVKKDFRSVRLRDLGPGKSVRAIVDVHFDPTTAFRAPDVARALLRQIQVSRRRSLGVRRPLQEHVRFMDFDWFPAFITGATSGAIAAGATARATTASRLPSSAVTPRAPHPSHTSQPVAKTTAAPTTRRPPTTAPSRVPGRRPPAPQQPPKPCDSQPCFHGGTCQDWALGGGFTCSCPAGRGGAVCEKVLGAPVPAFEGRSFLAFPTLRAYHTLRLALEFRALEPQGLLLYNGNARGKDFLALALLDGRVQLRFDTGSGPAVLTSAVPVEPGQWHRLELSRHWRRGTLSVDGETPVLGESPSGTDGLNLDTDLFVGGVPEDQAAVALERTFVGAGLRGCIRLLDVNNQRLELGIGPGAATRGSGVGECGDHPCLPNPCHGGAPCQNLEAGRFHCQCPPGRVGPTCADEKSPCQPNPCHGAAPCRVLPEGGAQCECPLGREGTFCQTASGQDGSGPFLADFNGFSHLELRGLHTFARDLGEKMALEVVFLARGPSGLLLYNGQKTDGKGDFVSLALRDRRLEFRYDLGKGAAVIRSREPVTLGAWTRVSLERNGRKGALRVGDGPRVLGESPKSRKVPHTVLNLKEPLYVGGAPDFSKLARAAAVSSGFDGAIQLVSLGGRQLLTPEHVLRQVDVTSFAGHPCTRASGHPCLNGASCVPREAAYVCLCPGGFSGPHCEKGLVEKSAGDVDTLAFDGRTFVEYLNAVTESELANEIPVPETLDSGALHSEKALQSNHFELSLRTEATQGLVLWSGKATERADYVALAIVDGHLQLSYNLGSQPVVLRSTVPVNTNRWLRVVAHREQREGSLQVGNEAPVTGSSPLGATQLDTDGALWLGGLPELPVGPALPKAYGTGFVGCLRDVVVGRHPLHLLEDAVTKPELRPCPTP
UniProt Q53H80, whole entry, looked up: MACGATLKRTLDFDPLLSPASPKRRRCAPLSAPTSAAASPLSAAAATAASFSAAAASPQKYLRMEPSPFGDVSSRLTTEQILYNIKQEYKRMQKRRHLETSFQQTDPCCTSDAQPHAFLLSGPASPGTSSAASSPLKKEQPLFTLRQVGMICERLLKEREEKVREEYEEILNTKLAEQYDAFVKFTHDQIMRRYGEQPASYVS
UniProt Q53FZ2: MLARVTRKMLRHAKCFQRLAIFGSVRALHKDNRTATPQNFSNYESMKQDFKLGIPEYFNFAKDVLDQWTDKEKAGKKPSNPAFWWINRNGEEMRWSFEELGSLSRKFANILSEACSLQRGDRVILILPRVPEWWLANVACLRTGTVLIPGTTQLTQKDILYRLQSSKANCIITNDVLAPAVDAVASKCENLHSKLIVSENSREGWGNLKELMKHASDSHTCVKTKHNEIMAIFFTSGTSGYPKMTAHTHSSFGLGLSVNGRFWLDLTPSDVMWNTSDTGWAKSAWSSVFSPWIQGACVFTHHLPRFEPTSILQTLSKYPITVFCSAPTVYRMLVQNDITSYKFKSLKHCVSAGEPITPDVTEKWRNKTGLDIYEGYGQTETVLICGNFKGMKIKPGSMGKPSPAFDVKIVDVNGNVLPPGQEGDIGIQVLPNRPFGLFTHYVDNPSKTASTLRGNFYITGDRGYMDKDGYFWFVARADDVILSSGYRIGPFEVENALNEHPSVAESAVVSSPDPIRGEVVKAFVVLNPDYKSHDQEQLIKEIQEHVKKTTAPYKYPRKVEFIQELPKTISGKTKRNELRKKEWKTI
UniProt P42025, whole entry, looked up: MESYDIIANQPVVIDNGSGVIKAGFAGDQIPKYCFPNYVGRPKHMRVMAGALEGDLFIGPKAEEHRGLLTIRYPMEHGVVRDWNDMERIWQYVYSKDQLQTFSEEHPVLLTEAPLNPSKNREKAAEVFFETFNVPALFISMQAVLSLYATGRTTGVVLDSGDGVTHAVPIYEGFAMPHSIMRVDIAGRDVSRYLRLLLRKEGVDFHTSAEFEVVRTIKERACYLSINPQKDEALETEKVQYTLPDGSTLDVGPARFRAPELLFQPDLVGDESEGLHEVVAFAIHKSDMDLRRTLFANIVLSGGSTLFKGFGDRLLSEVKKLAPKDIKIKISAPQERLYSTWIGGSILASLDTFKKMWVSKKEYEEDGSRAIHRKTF
UniProt Q12904: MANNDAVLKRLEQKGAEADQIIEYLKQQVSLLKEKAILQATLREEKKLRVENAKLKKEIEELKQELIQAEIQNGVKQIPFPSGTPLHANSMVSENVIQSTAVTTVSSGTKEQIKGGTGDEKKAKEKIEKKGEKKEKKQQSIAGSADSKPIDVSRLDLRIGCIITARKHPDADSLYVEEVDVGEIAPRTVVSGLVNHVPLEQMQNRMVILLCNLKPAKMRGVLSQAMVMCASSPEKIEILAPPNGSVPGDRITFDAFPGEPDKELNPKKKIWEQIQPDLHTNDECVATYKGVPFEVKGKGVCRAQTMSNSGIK

Legend:
Assay in all cases: log2 fold change, soluble protein after heating vs DMSO (PISA); higher = thermal stabilisation; K562 lysate, 10 uM; active = over 0.2 and 3.5 SD of the protein, either way, in both replicates (recomputed)
nilotinib = compound: Cc1cn(-c2cc(NC(=O)c3ccc(C)c(Nc4nccc(-c5cccnc5)n4)c3)cc(C(F)(F)F)c2)cn1 [nilotinib]
Method in brief: (§1)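 Thermal stability, expressed as log-two fold change relative to solvent controls, is given from duplicates. Crude K562 extract in PBS pH 7.4 with 1 mM MgCl2, at 1 mg/mL protein, was treated with 10 μM compound for 30 min and heated in aliquots for 3 min across 48°C-58°C. After pooling, adjustment to 0.5% NP-40 at 4°C and centrifugation at 21,000xg for 90 min, supernatant protein was measured by TMTpro 16plex LC-MS/MS with channel sums equalised.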

[1] = compound: Cc1nc(Nc2n[nH]c3c2CN(C(=O)N[C@H](CN(C)C)c2ccccc2)C3(C)C)c2sccc2n1
Method in brief: as §1

dasatinib = compound: Cc1nc(Nc2ncc(C(=O)Nc3c(C)cccc3Cl)s2)cc(N2CCN(CCO)CC2)n1 [dasatinib]
Method in brief: as §1

[2] = compound: Cc1ncc(-c2ccnc(Nc3ccc(S(C)(=O)=O)cc3)n2)n1C(C)C
Method in brief: as §1

[3] = compound: Cn1cc(-c2ccc3c(c2)CCN3C(=O)Cc2cccc(C(F)(F)F)c2)c2c(N)ncnc21
Method in brief: as §1

quisinostat = compound: Cn1cc(CNCC2CCN(c3ncc(C(=O)NO)cn3)CC2)c2ccccc21 [quisinostat]
Method in brief: as §1

tipifarnib = compound: Cn1cncc1[C@@](N)(c1ccc(Cl)cc1)c1ccc2c(c1)c(-c1cccc(Cl)c1)cc(=O)n2C [tipifarnib]
Method in brief: as §1

[4] = compound: NC(=O)Nc1cc(-c2cccc(F)c2)sc1C(=O)N[C@H]1CCCNC1
Method in brief: as §1

[5] = compound: NC(=O)c1cnc(N[C@@H]2CCCC[C@@H]2N)nc1Nc1cccc(-n2nccn2)c1
Method in brief: as §1

[6] = compound: NC1(c2ccc(-c3nc4ccn5c(=O)[nH]nc5c4cc3-c3ccccc3)cc2)CCC1
Method in brief: as §1

Measured: log2 fold change

ADAT2 (UniProt Q7Z6V5)
inactive: nilotinib 0.013 | [1] -0.044 | dasatinib 0.038 | [2] -0.043 | [3] 0.028 | quisinostat 0.025 | tipifarnib -0.068 | [4] 0 | [5] 0 | [6] 0.001

ACP2 (UniProt P11117)
inactive: nilotinib 0.036 | [1] -0.034 | dasatinib 0.127 | [2] 0 | [3] -0.032 | quisinostat -0.053 | tipifarnib -0.007 | [4] 0.043 | [5] 0 | [6] -0.057

AGPS (UniProt O00116)
inactive: nilotinib -0.014 | [1] -0.021 | dasatinib -0.033 | [2] 0.05 | [3] 0.008 | quisinostat 0.064 | tipifarnib -0.015 | [4] 0.014 | [5] 0.004 | [6] 0.003

AFDN isoform 1 (UniProt P55196)
inactive: nilotinib 0.014 | [1] 0 | dasatinib -0.025 | [2] -0.005 | [3] -0.004 | quisinostat -0.027 | tipifarnib -0.015 | [4] 0.016 | [5] -0.009 | [6] 0.005

ACTBL2 (UniProt Q562R1)
inactive: nilotinib 0.32 | [1] -0.036 | dasatinib -0.075 | [2] 0.139 | [3] -0.067 | quisinostat 0.184 | tipifarnib 0.087 | [4] -0.03 | [5] -0.008 | [6] 0.006

Looked up one by one from the entries so far (2):
ACTBL2 (UniProt Q562R1)
inactive: nilotinib 0.32 | [1] -0.036 | dasatinib -0.075 | [2] 0.139 | [3] -0.067 | quisinostat 0.184 | tipifarnib 0.087 | [4] -0.03 | [5] -0.008 | [6] 0.006

ADAT2 (UniProt Q7Z6V5)
inactive: nilotinib 0.013 | [1] -0.044 | dasatinib 0.038 | [2] -0.043 | [3] 0.028 | quisinostat 0.025 | tipifarnib -0.068 | [4] 0 | [5] 0 | [6] 0.001

Next results follow:

AKR1B1 (UniProt P15121)
inactive: nilotinib 0.031 | [1] -0.022 | dasatinib 0.086 | [2] 0.028 | [3] -0.136 | quisinostat 0.016 | tipifarnib -0.036 | [4] 0.03 | [5] -0.009 | [6] 0.038

AGRN (UniProt O00468)
inactive: nilotinib 0.236 | [1] -0.05 | dasatinib 0.053 | [2] -0.048 | [3] 0.107 | quisinostat 0.052 | tipifarnib 0.062 | [4] -0.048 | [5] 0.115 | [6] 0.071

ACTR10 (UniProt Q9NZ32)
inactive: nilotinib -0.02 | [1] -0.005 | dasatinib 0.057 | [2] 0.001 | [3] -0.016 | quisinostat 0.043 | tipifarnib 0.019 | [4] -0.082 | [5] 0.002 | [6] 0.006

ACY1 (UniProt Q03154)
inactive: nilotinib 0.022 | [1] 0.001 | dasatinib 0.013 | [2] -0.011 | [3] 0.012 | quisinostat 0.049 | tipifarnib 0.025 | [4] -0.006 | [5] -0.007 | [6] 0.037

AGO3 (UniProt Q9H9G7)
inactive: nilotinib -0.158 | [1] 0.013 | dasatinib 0 | [2] 0.054 | [3] 0.021 | quisinostat 0 | tipifarnib -0.039 | [4] 0.042 | [5] -0.005 | [6] -0.01

AKIRIN2 (UniProt Q53H80)
inactive: nilotinib 0.011 | [1] -0.061 | dasatinib 0.062 | [2] -0.084 | [3] -0.09 | quisinostat 0.011 | tipifarnib 0.044 | [4] -0.025 | [5] 0.066 | [6] 0.156

ACSM3 (UniProt Q53FZ2)
inactive: nilotinib 0.011 | [1] 0.017 | dasatinib -0.02 | [2] -0.026 | [3] 0.017 | quisinostat 0.018 | tipifarnib 0.039 | [4] -0.011 | [5] 0.009 | [6] -0.012

ACTR1B (UniProt P42025)
inactive: nilotinib -0.041 | [1] 0.038 | dasatinib -0.032 | [2] 0.015 | [3] -0.067 | quisinostat 0 | tipifarnib -0.02 | [4] 0.056 | [5] 0.015 | [6] -0.025

AGPAT1 (UniProt Q99943)
inactive: nilotinib -0.021 | [1] -0.004 | dasatinib -0.069 | [2] 0.055 | [3] -0.062 | quisinostat 0.043 | tipifarnib -0.058 | [4] -0.028 | [5] 0.028 | [6] -0.003

AIMP1 isoform 2 (UniProt Q12904)
inactive: nilotinib -0.013 | [1] -0.016 | dasatinib -0.076 | [2] 0.019 | [3] 0.023 | quisinostat 0.01 | tipifarnib 0.013 | [4] 0.044 | [5] -0.011 | [6] 0.001
